Measurements as given in article PMC3124131 (Frontiers in Pharmacology, 2010).

Test system: [^125I]-ICYP binding sites in rat lung membranes (β1- and β2-adrenoceptors)
Experiment: [125I]-ICYP competition radioligand binding in rat lung membranes
Conditions: [125I]-ICYP concentration 82 ± 2 pM (n = 37)
Procedure: All experiments were performed under the German legislation for the care of experimental animals. Adult Wistar rats of either gender were obtained from the breeding facility at the University of Essen Medical School. They were killed by decapitation under light ether anesthesia. Lung and bladder were rapidly removed, freed from surrounding connective tissues and rapidly frozen in liquid nitrogen. Thereafter, they were stored until use for up to 3 months at −70°C. On the day of the experiment, the tissues were thawed in ice-cold preparation buffer (50 mM Tris, 10 mM MgCl2, 0.5 mM EDTA, pH 7.5), minced with scissors and homogenized with an Ultra-Turrax (Janke & Kunkel, Staufen, Germany) for 10 s at full speed and then twice for 20 s each at 2/3 speed. The homogenates were filtered through medical gauze and then centrifuged for 20 min at 50,000 g at 4°C. The pellets were re-suspended in buffer, re-homogenized shortly (10 s at full speed) and washed by an additional centrifugation step. The final pellets were re-suspended and re-homogenized in binding buffer (see below).
Radioligand binding assays were performed as previously described (Goepel et al., [1997]) with minor modifications. […] Filters were washed with approximately 20 ml ice-cold incubation buffer.
Saturation binding data were analyzed by fitting rectangular hyperbolic functions to the experimental data. […]

SMILES: CC(C)(C)NCC(O)COc1cccc2[nH]c(C#N)c([125I])c12 (stereo not shown) [[^125I]-ICYP, [^125I]-iodocyanopindolol]
- non-specific binding: 24 ± 1% and 24%

“And” between values parts separate entries of the source, which are not always exact repeats. Equal entries are not always repeated.
